Assay results taken from PubChem BioAssay AID504467 (National Center for Advancing Translational Sciences (NCATS), 2011).
Hit rate of the full screen: of about 330,000 compounds, about 7,700 (2.3%) were called active. The shares of active, inactive and inconclusive entries below differ from those in the screen. The call rests on the fitted dose curve; in most records, active means well fitted inhibition curve with a large enough effect; inconclusive means small, poorly fitted or top-dose-only effect, or effect the other way; inactive means flat fitted curve, though single readings scatter. Where the call is inconclusive, the potency comes from a doubtful curve fit.

Experiment: qHTS screen for small molecules that inhibit ELG1-dependent DNA repair in human embryonic kidney (HEK293T) cells expressing luciferase-tagged ELG1; further: nearly all actives have a fitted effect of over 55% in size
Conditions: HEK293T ELG1-luciferase reporter, luminescence, 16 h, DNA damage induced by 5-fluorouridine; activity change, negative = inhibition: at 46.1 µM (top of the series)
Procedure, shortened: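 Quantitative HTS, concentration-response format. 2,000 cells/well co-treated with 5-fluorouridine and compound, 16 hr in 5% CO2 at 37 °C; ONE-Glo luminescence read after 30 min.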
On the % scale 0 is the no-effect control and ±100 the full control effect; potency means the concentration at half of the fitted maximal effect.

SMILES	Potency	activity change, negative = inhibition
O=C(Nc1ccc(F)c(F)c1)NC1CCCCC1	inconclusive: 13 µM [activator, partial curve]	
CCOC(=O)c1c(NC(=O)c2ccccc2)sc2c1CCc1ccccc1-2		inactive: -6.72%
CC(CCc1ccccc1)NC(=O)Cn1cccc1C(=O)c1ccccc1 (stereo not given)		inactive: 2.12%
CN1c2ccccc2N(C)C1(C)c1ccccc1	inconclusive: 29.1 µM [inhibitor, single point]	
COc1ccc(S(=O)(=O)N2c3ccccc3OCC2C)cc1 (stereo not given)	inconclusive: 6.51 µM [inhibitor, partial curve, poor fit]	
Cc1ccc(S(=O)(=O)/N=C(/Nc2ccc(F)cc2F)c2ccc(F)cc2)cc1	inconclusive: 29.1 µM [activator, single point]	
COCc1nnc(NC(=O)c2cc3ccccc3o2)s1	inconclusive: 20.6 µM [activator, partial curve]	
O=[N+]([O-])c1ccc(N2CCCC2)cc1NC1CC1		inactive: -5.67%
Cc1ccc(-n2c(C)nc3ncnc(-c4ccccc4)c32)cc1		inactive: -19.4%
COc1ccc(OC)c(C2C3=C(N=c4s/c(=C\c5cccc(O)c5)c(=O)n42)c2ccccc2CC3)c1 (stereo not given)	inconclusive: 20.6 µM [inhibitor, partial curve]	
N/C(=N\OC(=O)/C=C/c1ccccc1)c1ccccn1	inconclusive: 2.59 µM [activator, full curve]	
CCCCn1nc(NC(=O)CC)c2cc3cc(OC)ccc3nc21		inactive: -13%
CCCN1C(=O)/C(=C/c2c(N3CCNC(=O)C3CC(=O)OC)nc3c(C)cccn3c2=O)SC1=S (stereo not given)	inconclusive: 18.3 µM [inhibitor, single point]	
CCC1CCCCN1C(=O)c1cc(COc2ccc3ncccc3c2)on1 (stereo not given)	inconclusive: 0.651 µM [inhibitor, partial curve, poor fit]	
O=C(N/N=C/c1ccc(OC(=O)c2ccc(Br)cc2)cc1)c1ccncc1		inactive: 14.4%
O=C(NNC(=O)c1cc(-c2cccnc2)nc2ccccc12)Nc1ccc(Cl)cc1	inconclusive: 29.1 µM [inhibitor, single point]	
COC(=O)C/C=C/[C@@H](C)[C@@H](/C=N/OC[C@H]1O[C@H](c2ccccc2)C=C[C@@H]1Oc1ccc(OC)cc1)OC	inconclusive: 13 µM [inhibitor, single point]	
COc1ccc(-c2ccc(-c3nnc(-c4ccncc4)o3)cc2)cc1	inconclusive: 16.4 µM [activator, partial curve, poor fit]	
CCn1c(SCC(=O)N2CCN(c3cccc(Cl)c3)CC2)nc2ccccc2c1=O	inconclusive: 29.1 µM [inhibitor, single point]	
COc1ccc(-n2c(CCc3ccccc3)nnc2SCC(=O)c2ccc(Cl)cc2)cc1	inconclusive: 29.1 µM [inhibitor, single point]	
COC(=O)c1ccc2nc(-c3ccc4c(c3)OCO4)cn2c1	inconclusive: 0.366 µM [activator, full curve]	
CSCCC(NC(=O)c1ccc(Cl)cc1Cl)C(=O)NCc1ccncc1 (stereo not given)	inconclusive: 0.164 µM [inhibitor, single point]	

SMILES	Potency	activity change, negative = inhibition
Cc1cc(C)c2c(c1)OC(=O)CC2c1ccccc1C (stereo not given)		inactive: 0.857%
COC(=O)c1sccc1-n1cccc1C(=O)C(=O)Nc1ccc(F)cc1	inconclusive: 16.4 µM [inhibitor, single point]	
O=C(COC(=O)c1cccc(N2C(=O)C3CC=CCC3C2=O)c1)c1ccccc1 (stereo not given)		inactive: -3.33%
CCC(=O)Nc1nnc(/C=C/c2ccccc2)s1	inconclusive: 16.4 µM [activator, partial curve]	
Cc1ccc(CNC(=O)c2ccc(N3CCCC3=O)cc2)cc1	inconclusive: 29.1 µM [activator, partial curve, poor fit]	
Cc1cc(C)n(-c2ccc(C(=O)Nc3sccc3C(N)=O)cc2)n1	inconclusive: 2.59 µM [activator, partial curve]	
CC1CCN(CCCNC(=O)c2ccc3c(Cl)c4c(nc3c2)CCCC4)CC1	inconclusive: 3.26 µM [activator, partial curve, poor fit]	
O=C(Nc1nnc(Cc2ccccc2)s1)C1CCC1	inconclusive: 5.62 µM [inhibitor, single point]	
COc1ccc(NC(=O)CN2CCCC2c2cccs2)cc1S(=O)(=O)N1CCCCC1 (stereo not given)	inconclusive: 20.6 µM [inhibitor, single point]	
CC(C)CC(=O)NC(NC(=S)Nc1cccc2cccnc12)C(Cl)(Cl)Cl (stereo not given)	inconclusive: 18.4 µM [inhibitor, single point]	
CC1(C(=O)N2CC3(CC(c4cccc(NC(=O)COc5ccc(Cl)cc5)c4)=NO3)C[C@@H]2C(N)=O)CC1 (stereo not given in full)	inconclusive: 32.6 µM [inhibitor, single point]	
Cc1ccc(C)c(N2N=C(C(=O)NCCN3C(=O)S/C(=C\c4cccnc4)C3=O)CCC2=O)c1		inactive: -10.2%
O=C(O)CCC(=O)NNC(=O)c1cccc(Cl)c1		inactive: 17.5%
COc1ccccc1NC(=O)N(Cc1ccco1)Cc1cc2ccc(C)c(C)c2[nH]c1=O	active: 8.2 µM	
COc1ccccc1NC(=O)c1ccc(NC(=O)COC(=O)C2CC2C)cc1 (stereo not given)	inconclusive: 14.6 µM [inhibitor, partial curve]	
COc1ccc(/C=N/NC(=O)c2ccc(N(C)S(=O)(=O)c3ccccc3)cc2)cc1	inconclusive: 23.1 µM [inhibitor, partial curve, poor fit]	
CCOC(=O)c1ccccc1NC(=O)COC(=O)CN1C(=O)NC2(CCCC2)C1=O		inactive: 12.7%
NC(=O)C1CCN(c2nc(-c3cccnc3)cs2)CC1	inconclusive: 23.1 µM [inhibitor, single point]	
CCc1cc(C(=O)N2CCCC(C(=O)c3ccc(Oc4ccccc4)cc3)C2)n(C)n1 (stereo not given)	inconclusive: 14.6 µM [inhibitor, single point]	
O=C(CCn1cccn1)Nc1ccc2c(c1)OCCO2	inconclusive: 18.3 µM [activator, partial curve]	
COc1cc2c(C#CCCO)c(-c3ccsc3)oc(=O)c2cc1OC	inconclusive: 0.92 µM [inhibitor, full curve]	
CCOc1ccc(NC(=O)Cc2ccc(S(=O)(=O)N3CCCCC3)cc2)cc1OCC	inconclusive: 14.6 µM [inhibitor, partial curve, poor fit]	

Exported as comma-separated lines: entries from further up.
SMILES,Potency,"activity change, negative = inhibition"
Cc1cc(C)c2c(c1)OC(=O)CC2c1ccccc1C (stereo not given),,inactive: 0.857%
COC(=O)c1sccc1-n1cccc1C(=O)C(=O)Nc1ccc(F)cc1,"inconclusive: 16.4 µM [inhibitor, single point]",
O=C(COC(=O)c1cccc(N2C(=O)C3CC=CCC3C2=O)c1)c1ccccc1 (stereo not given),,inactive: -3.33%
CCC(=O)Nc1nnc(/C=C/c2ccccc2)s1,"inconclusive: 16.4 µM [activator, partial curve]",
Cc1cc(C)n(-c2ccc(C(=O)Nc3sccc3C(N)=O)cc2)n1,"inconclusive: 2.59 µM [activator, partial curve]",
O=C(Nc1nnc(Cc2ccccc2)s1)C1CCC1,"inconclusive: 5.62 µM [inhibitor, single point]",
CC(C)CC(=O)NC(NC(=S)Nc1cccc2cccnc12)C(Cl)(Cl)Cl (stereo not given),"inconclusive: 18.4 µM [inhibitor, single point]",
CC1(C(=O)N2CC3(CC(c4cccc(NC(=O)COc5ccc(Cl)cc5)c4)=NO3)C[C@@H]2C(N)=O)CC1 (stereo not given in full),"inconclusive: 32.6 µM [inhibitor, single point]",
COc1ccccc1NC(=O)N(Cc1ccco1)Cc1cc2ccc(C)c(C)c2[nH]c1=O,active: 8.2 µM,
COc1ccccc1NC(=O)c1ccc(NC(=O)COC(=O)C2CC2C)cc1 (stereo not given),"inconclusive: 14.6 µM [inhibitor, partial curve]",
CCOC(=O)c1ccccc1NC(=O)COC(=O)CN1C(=O)NC2(CCCC2)C1=O,,inactive: 12.7%
CCOc1ccc(NC(=O)Cc2ccc(S(=O)(=O)N3CCCCC3)cc2)cc1OCC,"inconclusive: 14.6 µM [inhibitor, partial curve, poor fit]",

Remaining list, next part:

SMILES	Potency	activity change, negative = inhibition
CC1CCc2nc(NC(=O)C3CCCO3)sc2C1 (stereo not given)	inconclusive: 1.3 µM [activator, partial curve]	
Cc1ccc(N(CC(=O)NC(C)(C)C)C(=O)CCC(=O)Nc2nccs2)cc1C	inconclusive: 20 µM [inhibitor, single point]	
O=C(C1CC1)N1CCc2cc(Br)cc(S(=O)(=O)N3CCCCCC3)c21	inconclusive: 23.1 µM [inhibitor, single point]	
c1cncc(-c2nc3c(ccc4ccccc43)[nH]2)c1	inconclusive: 5.17 µM [activator, partial curve]	
O=C(Nc1ccc(Cl)c(Cl)c1)Nc1nnc(CSc2ccccc2)s1	inconclusive: 5.17 µM [inhibitor, single point]	
O=C(CSCc1nc2ccccc2[nH]1)Nc1ccc2ccccc2c1	inconclusive: 20.6 µM [inhibitor, single point]	
COc1ccc(C(C)C)cc1S(=O)(=O)Nc1ccncc1	inconclusive: 18.3 µM [inhibitor, partial curve, poor fit]	
Cc1cccc(C(=O)NCC(=O)OC(C)C(=O)Nc2ccc(Cl)cn2)c1 (stereo not given)		inactive: -3.29%
CN1C(=O)C2C=CC1C1C(=O)N(c3ccccc3)C(=O)C21 (stereo not given)	inconclusive: 10 µM [inhibitor, single point]	
COc1ccc(NC(=O)CN2C(=O)c3ccccc3Sc3ccc(C(=O)N4CCOCC4)cc32)c(OC)c1	inconclusive: 9.2 µM [inhibitor, partial curve, poor fit]	
CC(=O)Nc1cc(C(=O)N2CCCC2)ccc1Sc1ccc(Cl)cc1	inconclusive: 23.1 µM [inhibitor, single point]	
O=C(N/N=C/c1ccccn1)c1cccc(NC(=O)c2ccc(Cl)cc2)c1	inconclusive: 23.1 µM [inhibitor, partial curve]	
Oc1ccccc1C1N=C(c2ccccc2)NC(c2ccccc2)=N1	inconclusive: 20.6 µM [activator, partial curve, poor fit]	
COc1ccc(-n2c(C)cc(C(=O)COc3ccc(-n4cnnn4)cc3)c2C)cc1		inactive: -0.518%
CC(C)CC(=O)NC(=S)Nc1ccccn1	inconclusive: 18.4 µM [activator, single point]	
COc1ccc(-c2cc(C(=O)c3c(N)n(C)c(=O)n(C)c3=O)c3ccccc3n2)cc1OC	inconclusive: 20.6 µM [activator, partial curve]	
CC(=O)CC1OC(=O)C(Br)=C1NCc1ccccc1 (stereo not given)	inconclusive: 18.4 µM [activator, partial curve, poor fit]	
Cc1cccnc1Nc1nc(-c2ccc(O)cc2)cs1	inconclusive: 8.2 µM [activator, partial curve]	
CCC(CC)C(=O)Nc1cccc(C(=O)NCCc2ccccc2)c1	inconclusive: 20.6 µM [activator, single point]	
COc1ccc(/C=N/NC(=O)C(C)n2cnc3ccccc3c2=O)cc1 (stereo not given)	inconclusive: 20.6 µM [activator, single point]	
CN(Cc1ccccc1)S(=O)(=O)c1ccc(Cl)c(C(=O)OCC(N)=O)c1	inconclusive: 23.1 µM [inhibitor, single point]	
